# Reference: the supplement of paper PMC12009310
# Structures can show the parent of a compound that is named as a salt. ± gives the standard deviation of the averaged measurements. The list shows a part of the results. Part of the spread comes from offsets between plates or batches.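 The cells are a mouse kidney inner medullary collecting duct line, silenced either for the ciliary gene Rpgrip1l or with a non-targeting control siRNA.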
# Test system: mIMCD3
# Assay: robust z score of cilia incidence (% cells with single cilium) vs plate controls; higher = more ciliated cells
# Conditions: 10 µM; 48 h; siRNA: siScr
row,Structure (SMILES),robust z score of cilia incidence
1,CCCCN1CCC(CCC(=O)c2cc(Cl)c(N)cc2OC)CC1,-27.7 ± 9.4
2,Clc1ccc(CCCOCCCN2CCCCC2)cc1,-79.7 ± 19
3,CC(C)[C@H](NS(=O)(=O)c1ccc(-c2ccc(Br)cc2)cc1)C(=O)O,1.75 ± 5.7
4,Cc1nc2c(OCc3ccccc3)cccn2c1CC#N,0.524 ± 0.61
5,N#C/C(=C\c1ccc(O)c(O)c1)C(=O)NCc1ccccc1,-0.572 ± 0.42
6,Nc1nc2ccc(OC(F)(F)F)cc2s1 [Riluzole hydrochloride],-8.13 ± 0.11
7,CCN(CC)CCCCC1CCN(CC(=O)N2c3ccccc3C(=O)Nc3cccnc32)CC1,0.799 ± 2
8,CCCCOc1cc(CC2CNC(=O)N2)ccc1OC (stereo unspecified),1.94 ± 4.8
9,CCCCOC(=O)c1cc2c(cn1)[nH]c1ccccc12,-12.7 ± 2
10,"Brc1c(NC2=NCCN2)ccc2nccnc12 [UK 14,304 tartrate]",2.38 ± 1
11,Cc1cc(C)c(N(Cc2ccccc2)S(=O)(=O)c2ccc(OCCNC(=O)c3cc4ccccc4o3)cc2)c(C(=O)NO)c1,-31.8 ± 2.5
12,O=C(O)Cc1cccc(OCCCN(Cc2cccc(C(F)(F)F)c2Cl)CC(c2ccccc2)c2ccccc2)c1 [GW 3965 hydrochloride],-66.7 ± 15
13,Cc1cc(Cn2cnc3c2CC(C(=O)O)N(C(=O)C(c2ccccc2)c2ccccc2)C3)ccc1N(C)C (stereo unspecified),-0.38 ± 6.8
14,CC(C)[C@H](CO)Nc1nc(Nc2ccc(C(=O)O)c(Cl)c2)c2ncn(C(C)C)c2n1 [Purvalanol B],-6.26 ± 4.4
15,CC1(COc2ccc(CC3SC(=O)NC3=O)cc2)CCCCC1 (stereo unspecified) [Ciglitazone],-54.9 ± 12
16,Nc1[nH]nc2nnc(-c3c(-c4ccccc4)nn4ccccc34)cc12,-10.3 ± 3.5
17,Cc1ccc(=O)n(-c2ccccc2)c1 [Pirfenidone],-0.36 ± 1.8
18,CC(=Cc1ccc(C(=O)O)cc1)c1ccc2c(c1)C(C)(C)CCC2(C)C,-11.9 ± 5.5
19,COc1ccc(Nc2nccc(NCCO)n2)cc1 [Cardiogenol C hydrochloride],5.218 ± 0.052

row,Structure (SMILES),robust z score of cilia incidence
1,Cc1cc(C)cc(C(=O)N(C)[C@H](Cc2ccc(-c3ccccc3)cc2)C(=O)N[C@@H](Cc2c[nH]c3ccccc23)C(=O)O)c1,-110 ± 56
2,CCCCCCN(CCCCCC)C(=O)Cc1c(-c2ccc(Cl)cc2)[nH]c2ccc(Cl)cc12,-11.6 ± 3.1
3,CN(C)CCCSC(=N)N [Dimaprit dihydrochloride],1.21 ± 0.6
4,COc1ccc(CC(C)NCC(O)c2ccc(O)c(NC=O)c2)cc1 (stereo unspecified) [Formoterol hemifumarate],-1.62 ± 4
5,Clc1ccc2nsnc2c1NC1=NCCN1 [Tizanidine hydrochloride],1.44 ± 1.1
6,CCOCC(O)COc1ccc(NC(=O)CC[S+](C)C)cc1 (stereo unspecified) [Suplatast tosylate],-1.83 ± 2.8
7,CN(C)c1ccc(/C=C2/C(=O)Nc3ccccc32)cc1,-2.26 ± 0.48
8,N[C@H](C(=O)O)c1ccc(C(=O)O)c(O)c1 [(S)-4-Carboxy-3-hydroxyphenylglycine],2.13 ± 1.3
9,O=C(Nc1cc(C(F)(F)F)cc(C(F)(F)F)c1)c1cc(Cl)ccc1O,-67.1 ± 14
10,COCCOC(=O)C1=C(C)NC(C)=C(C(=O)OC/C=C/c2ccccc2)C1c1cccc([N+](=O)[O-])c1 (stereo unspecified) [Cilnidipine],-19.8 ± 0.62
11,CCN(CC)c1ccc(/C=N/NC(=O)c2ccc(O)cc2)cc1,-35.3 ± 30
12,CCOC(=O)[C@H](CCc1ccccc1)N[C@H]1CCc2ccccc2N(CC(=O)O)C1=O [Benazepril hydrochloride],1.27 ± 1
13,O=C1C(Cl)=C(NCCN2CCOCC2)C(=O)c2ncccc21,-95.7 ± 49
14,Cc1[nH]c(/C=C2\C(=O)Nc3ccccc32)c(C)c1CCC(=O)O,0.901 ± 2.1
15,COc1ccc2cc([C@H](C)C(=O)O)ccc2c1 [Naproxen sodium],0.503 ± 1.4
16,COC(=O)C1=C(C)NC(C)=C([N+](=O)[O-])C1c1ccccc1C(F)(F)F (racemic),2.12 ± 0.18
17,COc1ccc(Cl)cc1NC(=O)Nc1cc(C)nc2ccccc12,-25.8 ± 19
18,Cc1[nH]c(/C=C2\C(=O)Nc3ccc(S(=O)(=O)Cc4c(Cl)cccc4Cl)cc32)c(C)c1C(=O)N1CCC[C@@H]1CN1CCCC1,-16.2 ± 8.7
19,COc1ccc2[nH]cc(CCNC(C)=O)c2c1 [Melatonin],-12.3 ± 3.1

# Test system: mIMCD3
# Assay: robust z score of cilia incidence (% cells with single cilium) vs plate controls; higher = more ciliated cells (rescue of cilia loss)
# Conditions: 10 µM; 48 h; siRNA: siRpgrip1l
row,Structure (SMILES),robust z score of cilia incidence
1,CCCCN1CCC(CCC(=O)c2cc(Cl)c(N)cc2OC)CC1,-23.5 ± 3.3
2,Clc1ccc(CCCOCCCN2CCCCC2)cc1,-43.76 ± 0.33
3,CC(C)[C@H](NS(=O)(=O)c1ccc(-c2ccc(Br)cc2)cc1)C(=O)O,-6.81 ± 0.24
4,Cc1nc2c(OCc3ccccc3)cccn2c1CC#N,-6.21 ± 1.7
5,N#C/C(=C\c1ccc(O)c(O)c1)C(=O)NCc1ccccc1,-9.32 ± 4.2
6,Nc1nc2ccc(OC(F)(F)F)cc2s1 [Riluzole hydrochloride],-12.2 ± 0.97
7,CCN(CC)CCCCC1CCN(CC(=O)N2c3ccccc3C(=O)Nc3cccnc32)CC1,-12.2 ± 10
8,CCCCOc1cc(CC2CNC(=O)N2)ccc1OC (stereo unspecified),-5.82 ± 4.2
9,CCCCOC(=O)c1cc2c(cn1)[nH]c1ccccc12,-29.7 ± 19
10,"Brc1c(NC2=NCCN2)ccc2nccnc12 [UK 14,304 tartrate]",-7.45 ± 4.4
11,Cc1cc(C)c(N(Cc2ccccc2)S(=O)(=O)c2ccc(OCCNC(=O)c3cc4ccccc4o3)cc2)c(C(=O)NO)c1,-37 ± 9.4
12,O=C(O)Cc1cccc(OCCCN(Cc2cccc(C(F)(F)F)c2Cl)CC(c2ccccc2)c2ccccc2)c1 [GW 3965 hydrochloride],-58.5 ± 8.3
13,Cc1cc(Cn2cnc3c2CC(C(=O)O)N(C(=O)C(c2ccccc2)c2ccccc2)C3)ccc1N(C)C (stereo unspecified),-5.69 ± 0.27
14,CC(C)[C@H](CO)Nc1nc(Nc2ccc(C(=O)O)c(Cl)c2)c2ncn(C(C)C)c2n1 [Purvalanol B],-129 ± 81
15,CC1(COc2ccc(CC3SC(=O)NC3=O)cc2)CCCCC1 (stereo unspecified) [Ciglitazone],-33 ± 9.5
16,Nc1[nH]nc2nnc(-c3c(-c4ccccc4)nn4ccccc34)cc12,-12 ± 1.9
17,Cc1ccc(=O)n(-c2ccccc2)c1 [Pirfenidone],-17.3 ± 1.5
18,CC(=Cc1ccc(C(=O)O)cc1)c1ccc2c(c1)C(C)(C)CCC2(C)C,-20.2 ± 2.7
19,COc1ccc(Nc2nccc(NCCO)n2)cc1 [Cardiogenol C hydrochloride],-10.1 ± 3.8

row,Structure (SMILES),robust z score of cilia incidence
1,Cc1cc(C)cc(C(=O)N(C)[C@H](Cc2ccc(-c3ccccc3)cc2)C(=O)N[C@@H](Cc2c[nH]c3ccccc23)C(=O)O)c1,-118 ± 100
2,CCCCCCN(CCCCCC)C(=O)Cc1c(-c2ccc(Cl)cc2)[nH]c2ccc(Cl)cc12,-40.6 ± 1.6
3,CN(C)CCCSC(=N)N [Dimaprit dihydrochloride],-13.3 ± 3.2
4,COc1ccc(CC(C)NCC(O)c2ccc(O)c(NC=O)c2)cc1 (stereo unspecified) [Formoterol hemifumarate],-138 ± 130
5,Clc1ccc2nsnc2c1NC1=NCCN1 [Tizanidine hydrochloride],-6.09 ± 0.78
6,CCOCC(O)COc1ccc(NC(=O)CC[S+](C)C)cc1 (stereo unspecified) [Suplatast tosylate],-9.17 ± 3.6
7,CN(C)c1ccc(/C=C2/C(=O)Nc3ccccc32)cc1,-242 ± 180
8,N[C@H](C(=O)O)c1ccc(C(=O)O)c(O)c1 [(S)-4-Carboxy-3-hydroxyphenylglycine],-7.23 ± 8.1
9,O=C(Nc1cc(C(F)(F)F)cc(C(F)(F)F)c1)c1cc(Cl)ccc1O,-56 ± 7.3
10,COCCOC(=O)C1=C(C)NC(C)=C(C(=O)OC/C=C/c2ccccc2)C1c1cccc([N+](=O)[O-])c1 (stereo unspecified) [Cilnidipine],-29.1 ± 1.3
11,CCN(CC)c1ccc(/C=N/NC(=O)c2ccc(O)cc2)cc1,-30.9 ± 17
12,CCOC(=O)[C@H](CCc1ccccc1)N[C@H]1CCc2ccccc2N(CC(=O)O)C1=O [Benazepril hydrochloride],-14.3 ± 0.58
13,O=C1C(Cl)=C(NCCN2CCOCC2)C(=O)c2ncccc21,-93.7 ± 86
14,Cc1[nH]c(/C=C2\C(=O)Nc3ccccc32)c(C)c1CCC(=O)O,-5.36 ± 3.2
15,COc1ccc2cc([C@H](C)C(=O)O)ccc2c1 [Naproxen sodium],-9.05 ± 2
16,COC(=O)C1=C(C)NC(C)=C([N+](=O)[O-])C1c1ccccc1C(F)(F)F (racemic),-164 ± 110
17,COc1ccc(Cl)cc1NC(=O)Nc1cc(C)nc2ccccc12,-23.3 ± 2.8
18,Cc1[nH]c(/C=C2\C(=O)Nc3ccc(S(=O)(=O)Cc4c(Cl)cccc4Cl)cc32)c(C)c1C(=O)N1CCC[C@@H]1CN1CCCC1,-12.8 ± 3.1
19,COc1ccc2[nH]cc(CCNC(C)=O)c2c1 [Melatonin],-7.96 ± 2.8
